# PMC4741798, “Imaging of carbonic anhydrase IX with an ^111In-labeled dual-motif inhibitor” (Oncotarget, 2015)
# Further values from the same series stand in other lists.
# System: SK-RC-52 xenografts
# Test: Biodistribution in mice bearing SK-RC-52 xenografts
# Type: in vivo
# Conditions: 48 h + Block (co-injected 200 nmole of 1); n = 5
# Description: Mice bearing SK-RC-52 xenografts within the lower left flank were injected intravenously with 740 kBq (20 μCi) of [^111In]XYIMSR-01 in 200 μL of PBS. For in vivo competition (binding specificity) studies, tumor-bearing mice were injected with 740 kBq (20 μCi) of [^111In]XYIMSR-01 and 200 nmole of 1 in 200 μL of PBS concurrently. At 1 h, 4 h, 8 h, 24 h and 48 h post-injection, mice were sacrificed by cervical dislocation and the blood was immediately collected by cardiac puncture. Heart, lungs, pancreas, spleen, fat, brain, muscle, small intestines, liver, stomach, kidney, urinary bladder, and tumor were collected. Each organ was weighed and the tissue radioactivity was measured with an automated gamma counter (1282 Compugamma CS, Pharmacia/LKBNuclear, Inc., Mt. Waverly, Vic. Australia). The percentage of injected dose per gram of tissue (% ID/g) was calculated by comparison with samples of a standard dilution of the initial dose. All measurements were corrected for radioactive decay.
# Data were expressed as mean ± standard deviation (SD). Prism software (GraphPAD, San Diego, California) was used to determine statistical significance. Statistical significance was calculated using a paired t test. P-values < 0.0001 were considered significant.
structure (smiles),measurement,value
CC(CCC(=O)N[C@@H](CC(=O)N[C@@H](CC(=O)N[C@@H](CCCCn1cc(CCCC(=O)Nc2nnc(S(N)(=O)=O)s2)nn1)C(=O)NCCOCCOCCNC(=O)CN1CCN(CC(=O)[O-])CCN(CC(=O)[O-])CCN(CC(=O)[O-])CC1)C(=O)O)C(=O)O)(c1ccc(O)cc1)c1ccc(O)cc1.[111In+3] [[^111In]XYIMSR-01],Biodistribution: Brain,0.03 ± 0.01 %ID/g
